{"source": "patent US20070037831A1", "about": "“Methods of using PDE 5 inhibitors for the treatment of congestive heart failure” (priority 2004, published 2007)", "tested_on": "PDE VI", "experiment": "Enzyme selectivity, ratio PDE VI IC50/PDE V IC50", "assay_type": "biochemical", "conditions": "higher ratio = more selective for PDE V relative to PDE VI; all numbers modified by the word \"about\"", "note": "Some entries share one result that the patent states for a list of compounds."}
{"smiles": "CCn1c(=O)c2c(nc(NC3CCCCC3)n2Cc2ccc(O)c(Cl)c2)n(CCO)c1=O", "note": "[Compound 107]", "values": [{"measurement": "PDE VI/PDE V ratio (PDE VI IC50/PDE V IC50)", "value": "> 140"}]}
{"smiles": "CCn1c(=O)c2c(nc(N[C@@H]3CCC[C@H]3O)n2Cc2cc(Br)c3c(c2)CCO3)n(CCO)c1=O", "note": "[Compound 128]", "values": [{"measurement": "PDE VI/PDE V ratio (PDE VI IC50/PDE V IC50)", "value": "> 140"}]}
{"smiles": "CCCn1c(=O)n(CC)c(=O)c2c1nc(NC1CCCCC1)n2Cc1ccc(OC)c(C)c1", "note": "[Compound 176]", "values": [{"measurement": "PDE VI/PDE V ratio (PDE VI IC50/PDE V IC50)", "value": "> 140"}]}
{"smiles": "CCn1c(=O)c2c(nc(NC3CCCCC3)n2Cc2ccc(S(N)(=O)=O)c(Cl)c2)n(CCO)c1=O", "note": "[Compound 183]", "values": [{"measurement": "PDE VI/PDE V ratio (PDE VI IC50/PDE V IC50)", "value": "> 140"}]}
{"smiles": "CCn1c(=O)c2c(nc(NC3CCOCC3)n2Cc2ccc(OC)c(Br)c2)n(CCO)c1=O", "note": "[Compound 186]", "values": [{"measurement": "PDE VI/PDE V ratio (PDE VI IC50/PDE V IC50)", "value": "> 140"}]}
{"smiles": "CCn1c(=O)c2c(nc(NC3CCOCC3)n2Cc2ccc(S(N)(=O)=O)cc2)n(CC)c1=O", "note": "[Compound 188]", "values": [{"measurement": "PDE VI/PDE V ratio (PDE VI IC50/PDE V IC50)", "value": "> 140"}]}
{"smiles": "CCn1c(=O)c2c(nc(NC3CCS(=O)(=O)CC3)n2Cc2ccc(OC)c(Cl)c2)n(CC)c1=O", "note": "[Compound 193]", "values": [{"measurement": "PDE VI/PDE V ratio (PDE VI IC50/PDE V IC50)", "value": "> 0"}]}
{"smiles": "CCn1c(=O)c2c(nc(NC3CCSCC3)n2Cc2ccc(OC)c(Cl)c2)n(CC)c1=O", "note": "[Compound 197]", "values": [{"measurement": "PDE VI/PDE V ratio (PDE VI IC50/PDE V IC50)", "value": "> 140"}]}
{"smiles": "CCn1c(=O)c2c(nc(NC3CCSCC3)n2Cc2ccc(OC)c(Br)c2)n(CC)c1=O", "note": "[Compound 198]", "values": [{"measurement": "PDE VI/PDE V ratio (PDE VI IC50/PDE V IC50)", "value": "> 140"}]}
